Data reported in article PMC7951927.
These are yes or no findings as the source states them, for the method shown. Binding seen in cells or lysates may run through a third protein. A yes stands for co-enrichment or nearness to the bait. Other partners may have been found.

Protein sequences, listed by entry. Tags and fused reporters are not part of them.
UniProt Q8IWT3: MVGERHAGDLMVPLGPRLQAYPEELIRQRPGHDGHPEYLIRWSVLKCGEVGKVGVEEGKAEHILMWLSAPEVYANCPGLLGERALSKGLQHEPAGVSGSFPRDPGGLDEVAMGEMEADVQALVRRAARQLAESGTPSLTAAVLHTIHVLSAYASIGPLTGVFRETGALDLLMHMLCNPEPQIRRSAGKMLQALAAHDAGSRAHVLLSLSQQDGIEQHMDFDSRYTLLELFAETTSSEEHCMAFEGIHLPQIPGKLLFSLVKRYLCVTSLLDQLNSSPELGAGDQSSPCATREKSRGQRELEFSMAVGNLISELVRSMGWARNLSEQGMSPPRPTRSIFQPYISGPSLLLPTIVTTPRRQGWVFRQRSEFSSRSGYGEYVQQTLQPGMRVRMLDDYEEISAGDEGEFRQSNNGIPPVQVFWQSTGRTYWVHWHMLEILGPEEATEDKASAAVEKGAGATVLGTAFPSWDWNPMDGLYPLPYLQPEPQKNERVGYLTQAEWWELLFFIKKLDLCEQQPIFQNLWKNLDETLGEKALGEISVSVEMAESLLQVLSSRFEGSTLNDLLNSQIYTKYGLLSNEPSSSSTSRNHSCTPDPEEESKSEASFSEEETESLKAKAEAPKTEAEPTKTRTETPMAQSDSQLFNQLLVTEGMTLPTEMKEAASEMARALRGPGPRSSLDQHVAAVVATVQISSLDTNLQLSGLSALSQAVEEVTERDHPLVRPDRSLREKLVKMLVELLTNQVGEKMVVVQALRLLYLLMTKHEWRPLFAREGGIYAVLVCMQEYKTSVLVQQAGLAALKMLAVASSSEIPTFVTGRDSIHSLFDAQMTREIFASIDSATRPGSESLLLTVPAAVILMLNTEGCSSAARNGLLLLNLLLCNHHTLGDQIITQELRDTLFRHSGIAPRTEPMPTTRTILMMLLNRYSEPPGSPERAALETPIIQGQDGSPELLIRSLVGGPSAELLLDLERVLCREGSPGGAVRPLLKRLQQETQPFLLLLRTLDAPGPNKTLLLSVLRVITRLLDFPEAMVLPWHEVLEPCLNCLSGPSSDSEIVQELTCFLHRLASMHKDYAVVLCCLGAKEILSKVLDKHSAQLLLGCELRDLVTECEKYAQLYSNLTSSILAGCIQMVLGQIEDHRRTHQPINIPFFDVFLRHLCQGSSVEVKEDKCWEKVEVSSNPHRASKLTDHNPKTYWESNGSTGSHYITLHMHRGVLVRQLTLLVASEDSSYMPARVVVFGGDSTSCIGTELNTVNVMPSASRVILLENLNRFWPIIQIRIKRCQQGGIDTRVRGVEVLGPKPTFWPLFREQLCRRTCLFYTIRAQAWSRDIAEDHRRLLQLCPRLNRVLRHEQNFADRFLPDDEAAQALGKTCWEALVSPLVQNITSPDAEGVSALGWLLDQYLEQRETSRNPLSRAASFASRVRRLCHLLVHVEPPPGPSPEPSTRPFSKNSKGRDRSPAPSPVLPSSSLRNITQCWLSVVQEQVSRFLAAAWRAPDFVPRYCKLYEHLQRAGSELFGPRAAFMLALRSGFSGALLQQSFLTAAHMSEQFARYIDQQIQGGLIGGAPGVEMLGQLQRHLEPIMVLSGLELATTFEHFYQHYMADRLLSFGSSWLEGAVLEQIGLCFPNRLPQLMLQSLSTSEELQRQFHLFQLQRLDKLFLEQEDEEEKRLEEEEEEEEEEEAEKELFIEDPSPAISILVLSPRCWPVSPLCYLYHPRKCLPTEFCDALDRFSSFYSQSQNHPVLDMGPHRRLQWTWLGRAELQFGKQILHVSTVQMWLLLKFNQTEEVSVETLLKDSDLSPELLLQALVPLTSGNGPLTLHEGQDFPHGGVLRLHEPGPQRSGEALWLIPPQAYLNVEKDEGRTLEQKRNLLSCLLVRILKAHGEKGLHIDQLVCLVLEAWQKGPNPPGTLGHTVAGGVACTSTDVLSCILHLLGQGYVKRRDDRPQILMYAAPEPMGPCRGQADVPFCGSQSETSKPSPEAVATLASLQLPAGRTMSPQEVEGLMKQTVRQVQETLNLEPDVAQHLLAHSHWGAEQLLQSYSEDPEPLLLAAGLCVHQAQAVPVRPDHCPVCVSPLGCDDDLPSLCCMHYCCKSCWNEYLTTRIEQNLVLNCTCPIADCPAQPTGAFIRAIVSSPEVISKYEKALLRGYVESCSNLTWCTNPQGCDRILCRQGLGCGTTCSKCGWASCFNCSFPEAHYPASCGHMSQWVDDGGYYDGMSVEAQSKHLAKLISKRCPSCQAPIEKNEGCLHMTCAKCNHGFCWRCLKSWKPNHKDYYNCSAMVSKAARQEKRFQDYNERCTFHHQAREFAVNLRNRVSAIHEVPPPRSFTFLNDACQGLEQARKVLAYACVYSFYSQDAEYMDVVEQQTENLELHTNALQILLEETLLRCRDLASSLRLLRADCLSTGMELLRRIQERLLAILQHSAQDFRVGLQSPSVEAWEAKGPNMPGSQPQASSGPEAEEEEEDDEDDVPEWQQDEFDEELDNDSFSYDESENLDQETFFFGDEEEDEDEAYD
UniProt O00571: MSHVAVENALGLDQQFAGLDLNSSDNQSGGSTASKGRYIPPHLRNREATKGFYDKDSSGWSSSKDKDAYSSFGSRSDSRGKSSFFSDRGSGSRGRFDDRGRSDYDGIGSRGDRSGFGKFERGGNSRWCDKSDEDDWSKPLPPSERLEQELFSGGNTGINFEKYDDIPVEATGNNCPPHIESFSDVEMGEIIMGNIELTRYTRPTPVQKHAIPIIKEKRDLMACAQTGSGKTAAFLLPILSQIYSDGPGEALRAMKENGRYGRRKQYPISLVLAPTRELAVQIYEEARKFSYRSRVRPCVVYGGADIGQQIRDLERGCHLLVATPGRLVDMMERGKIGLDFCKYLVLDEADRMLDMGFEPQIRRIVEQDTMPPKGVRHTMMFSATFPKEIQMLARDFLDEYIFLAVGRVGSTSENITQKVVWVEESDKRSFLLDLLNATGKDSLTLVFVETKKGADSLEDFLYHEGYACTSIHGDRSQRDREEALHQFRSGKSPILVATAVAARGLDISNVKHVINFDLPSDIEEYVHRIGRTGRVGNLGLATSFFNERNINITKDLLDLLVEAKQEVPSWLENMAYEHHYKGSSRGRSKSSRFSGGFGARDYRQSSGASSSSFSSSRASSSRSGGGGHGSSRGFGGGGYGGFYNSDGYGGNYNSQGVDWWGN
UniProt Q9UJX5: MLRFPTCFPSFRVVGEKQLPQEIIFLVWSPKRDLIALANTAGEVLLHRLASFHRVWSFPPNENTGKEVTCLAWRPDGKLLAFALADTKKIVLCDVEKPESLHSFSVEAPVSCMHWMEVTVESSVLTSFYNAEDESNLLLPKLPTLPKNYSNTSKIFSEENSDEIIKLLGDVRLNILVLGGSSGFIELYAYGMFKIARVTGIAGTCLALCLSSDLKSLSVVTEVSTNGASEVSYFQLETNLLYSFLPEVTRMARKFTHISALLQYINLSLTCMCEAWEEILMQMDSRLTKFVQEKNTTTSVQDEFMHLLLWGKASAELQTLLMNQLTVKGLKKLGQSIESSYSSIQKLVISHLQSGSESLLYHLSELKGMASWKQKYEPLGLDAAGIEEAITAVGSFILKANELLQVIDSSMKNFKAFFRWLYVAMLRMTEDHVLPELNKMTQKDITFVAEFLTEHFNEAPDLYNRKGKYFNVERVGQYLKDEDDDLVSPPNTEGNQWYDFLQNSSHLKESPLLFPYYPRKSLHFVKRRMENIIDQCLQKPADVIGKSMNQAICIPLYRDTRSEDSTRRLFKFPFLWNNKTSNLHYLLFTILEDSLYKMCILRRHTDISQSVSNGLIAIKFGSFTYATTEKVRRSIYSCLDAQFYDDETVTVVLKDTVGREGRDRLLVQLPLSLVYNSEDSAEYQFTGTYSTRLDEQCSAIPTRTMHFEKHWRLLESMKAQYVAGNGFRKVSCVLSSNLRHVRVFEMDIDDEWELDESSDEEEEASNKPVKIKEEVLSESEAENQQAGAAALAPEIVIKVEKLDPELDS
UniProt Q9UJX4: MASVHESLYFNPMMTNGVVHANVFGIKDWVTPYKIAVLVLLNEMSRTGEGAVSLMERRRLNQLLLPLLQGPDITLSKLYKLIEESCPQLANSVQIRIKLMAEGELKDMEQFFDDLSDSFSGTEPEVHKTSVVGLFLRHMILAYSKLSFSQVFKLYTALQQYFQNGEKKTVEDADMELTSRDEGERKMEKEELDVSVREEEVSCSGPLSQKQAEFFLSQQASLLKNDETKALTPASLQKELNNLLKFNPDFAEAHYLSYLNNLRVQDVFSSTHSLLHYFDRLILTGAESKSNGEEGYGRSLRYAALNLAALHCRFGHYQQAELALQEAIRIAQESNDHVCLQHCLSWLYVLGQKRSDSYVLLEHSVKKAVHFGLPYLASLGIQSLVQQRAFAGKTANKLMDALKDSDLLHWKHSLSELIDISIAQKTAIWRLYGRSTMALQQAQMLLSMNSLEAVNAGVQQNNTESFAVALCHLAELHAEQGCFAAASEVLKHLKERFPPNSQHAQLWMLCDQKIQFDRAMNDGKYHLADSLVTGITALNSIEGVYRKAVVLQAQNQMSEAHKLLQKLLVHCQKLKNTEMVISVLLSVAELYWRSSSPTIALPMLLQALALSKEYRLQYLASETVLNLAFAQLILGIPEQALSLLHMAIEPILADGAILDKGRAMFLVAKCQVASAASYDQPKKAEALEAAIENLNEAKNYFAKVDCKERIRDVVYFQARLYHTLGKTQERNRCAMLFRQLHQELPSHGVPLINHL
UniProt P53621: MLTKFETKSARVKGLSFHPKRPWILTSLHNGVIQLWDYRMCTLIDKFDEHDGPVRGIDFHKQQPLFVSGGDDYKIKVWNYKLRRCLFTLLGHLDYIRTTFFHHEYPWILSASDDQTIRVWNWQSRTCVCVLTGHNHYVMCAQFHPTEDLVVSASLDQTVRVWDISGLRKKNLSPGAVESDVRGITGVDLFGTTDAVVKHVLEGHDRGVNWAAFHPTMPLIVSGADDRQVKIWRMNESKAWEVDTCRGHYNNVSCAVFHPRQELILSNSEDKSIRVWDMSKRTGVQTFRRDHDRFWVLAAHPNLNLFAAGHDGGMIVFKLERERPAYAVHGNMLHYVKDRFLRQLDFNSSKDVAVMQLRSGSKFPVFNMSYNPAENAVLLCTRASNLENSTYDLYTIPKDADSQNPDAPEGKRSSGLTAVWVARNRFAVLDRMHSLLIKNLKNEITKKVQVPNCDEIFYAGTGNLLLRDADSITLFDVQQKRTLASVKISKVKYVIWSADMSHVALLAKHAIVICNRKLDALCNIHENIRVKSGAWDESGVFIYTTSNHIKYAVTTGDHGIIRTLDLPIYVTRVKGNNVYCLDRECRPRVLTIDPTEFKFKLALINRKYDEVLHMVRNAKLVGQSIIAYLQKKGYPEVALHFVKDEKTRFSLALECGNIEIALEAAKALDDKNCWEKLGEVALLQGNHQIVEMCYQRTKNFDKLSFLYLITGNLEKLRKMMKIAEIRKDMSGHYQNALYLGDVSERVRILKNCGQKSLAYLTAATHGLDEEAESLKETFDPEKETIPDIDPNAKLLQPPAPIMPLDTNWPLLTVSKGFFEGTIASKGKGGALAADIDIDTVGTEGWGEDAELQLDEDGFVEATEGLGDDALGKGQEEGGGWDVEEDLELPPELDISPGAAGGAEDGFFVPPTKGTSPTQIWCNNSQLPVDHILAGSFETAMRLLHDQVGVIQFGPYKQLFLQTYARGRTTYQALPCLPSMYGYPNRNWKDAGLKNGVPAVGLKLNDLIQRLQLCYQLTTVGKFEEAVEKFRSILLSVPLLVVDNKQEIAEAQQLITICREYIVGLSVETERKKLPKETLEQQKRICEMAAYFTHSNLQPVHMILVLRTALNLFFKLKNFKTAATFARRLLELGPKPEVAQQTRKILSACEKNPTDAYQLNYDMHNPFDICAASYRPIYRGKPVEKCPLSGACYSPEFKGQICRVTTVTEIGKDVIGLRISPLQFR
UniProt P38919: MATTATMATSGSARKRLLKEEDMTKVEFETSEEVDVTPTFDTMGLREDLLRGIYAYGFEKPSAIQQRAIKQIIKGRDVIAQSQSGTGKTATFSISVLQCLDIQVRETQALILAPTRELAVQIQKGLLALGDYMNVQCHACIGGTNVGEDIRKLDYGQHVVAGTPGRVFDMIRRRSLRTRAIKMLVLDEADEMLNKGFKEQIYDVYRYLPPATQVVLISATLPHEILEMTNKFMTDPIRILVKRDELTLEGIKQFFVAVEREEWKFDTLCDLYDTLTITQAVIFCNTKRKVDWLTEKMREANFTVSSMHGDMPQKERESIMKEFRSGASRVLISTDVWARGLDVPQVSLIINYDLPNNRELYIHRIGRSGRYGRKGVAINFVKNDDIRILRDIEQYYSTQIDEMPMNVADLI

B1: Apoptotic chromatin condensation inducer in the nucleus (protein, UniProt Q9UKV3 1-1341)
chain: MWRRKHPRTSGGTRGVLSGNRGVEYGSGRGHLGTFEGRWRKLPKMPEAVGTDPSTSRKMAELEEVTLDGKPLQALRVTDLKAALEQRGLAKSGQKSALVKRLKGALMLENLQKHSTPHAAFQPNSQIGEEMSQNSFIKQYLEKQQELLRQRLEREAREAAELEEASAESEDEMIHPEGVASLLPPDFQSSLERPELELSRHSPRKSSSISEEKGDSDDEKPRKGERRSSRVRQARAAKLSEGSQPAEEEEDQETPSRNLRVRADRNLKTEEEEEEEEEEEEDDEEEEGDDEGQKSREAPILKEFKEEGEEIPRVKPEEMMDERPKTRSQEQEVLERGGRFTRSQEEARKSHLARQQQEKEMKTTSPLEEEEREIKSSQGLKEKSKSPSPPRLTEDRKKASLVALPEQTASEEETPPPLLTKEASSPPPHPQLHSEEEIEPMEGPAPAVLIQLSPPNTDADTRELLVSQHTVQLVGGLSPLSSPSDTKAESPAEKVPEESVLPLVQKSTLADYSAQKDLEPESDRSAQPLPLKIEELALAKGITEECLKQPSLEQKEGRRASHTLLPSHRLKQSADSSSSRSSSSSSSSSRSRSRSPDSSGSRSHSPLRSKQRDVAQARTHANPRGRPKMGSRSTSESRSRSRSRSRSASSNSRKSLSPGVSRDSSTSYTETKDPSSGQEVATPPVPQLQVCEPKERTSTSSSSVQARRLSQPESAEKHVTQRLQPERGSPKKCEAEEAEPPAATQPQTSETQTSHLPESERIHHTVEEKEEVTMDTSENRPENDVPEPPMPIADQVSNDDRPEGSVEDEEKKESSLPKSFKRKISVVSATKGVPAGNSDTEGGQPGRKRRWGASTATTQKKPSISITTESLKSLIPDIKPLAGQEAVVDLHADDSRISEDETERNGDDGTHDKGLKICRTVTQVVPAEGQENGQREEEEEEKEPEAEPPVPPQVSVEVALPPPAEHEVKKVTLGDTLTRRSISQQKSGVSITIDDPVRTAQVPSPPRGKISNIVHISNLVRPFTLGQLKELLGRTGTLVEEAFWIDKIKSHCFVTYSTVEEAVATRTALHGVKWPQSNPKFLCADYAEQDELDYHRGLLVDRPSETKTEEQGIPRPLHPPPPPPVQPPQHPRAEQREQERAVREQWAEREREMERRERTRSEREWDRDKVREGPRSRSRSRDRRRKERAKSKEKKSEKKEKAQEEPPAKLLDDLFRKTKAAPCIYWLPLTDSQIVQKEAERAERAKEREKRRKEQEEEEQKEREKEAERERNRQLEREKRREHSRERDRERERERERDRGDRDRDRERDRERGRERDRRDTKRHSRSRSRSTPVRDRGGRR
B2: Hydroxymethylglutaryl-CoA synthase, cytoplasmic (protein, UniProt Q01581 1-520)
chain: MPGSLPLNAEACWPKDVGIVALEIYFPSQYVDQAELEKYDGVDAGKYTIGLGQAKMGFCTDREDINSLCMTVVQNLMERNNLSYDCIGRLEVGTETIIDKSKSVKTNLMQLFEESGNTDIEGIDTTNACYGGTAAVFNAVNWIESSSWDGRYALVVAGDIAVYATGNARPTGGVGAVALLIGPNAPLIFERGLRGTHMQHAYDFYKPDMLSEYPIVDGKLSIQCYLSALDRCYSVYCKKIHAQWQKEGNDKDFTLNDFGFMIFHSPYCKLVQKSLARMLLNDFLNDQNRDKNSIYSGLEAFGDVKLEDTYFDRDVEKAFMKASSELFSQKTKASLLVSNQNGNMYTSSVYGSLASVLAQYSPQQLAGKRIGVFSYGSGLAATLYSLKVTQDATPGSALDKITASLCDLKSRLDSRTGVAPDVFAENMKLREDTHHLVNYIPQGSIDSLFEGTWYLVRVDEKHRRTYARRPTPNDDTLDEGVGLVHSNIATEHIPSPAKKVPRLPATAAEPEAAVISNGEH

These molecules were tested against Cullin-9 (human (endogenous in hPSCs, hNSCs, hNPCs)) (UniProt Q8IWT3) (assay: affinity purification with mass spectrometry; endogenous CUL9 immunoprecipitated (anti-CUL9, Dynabeads, 1% Triton washes) from 2 mg whole-cell hPSC lysate, cells treated with bortezomib; IgG control; LC-MS/MS).

binding, binds:
ATP-dependent RNA helicase DDX3X (from UniProt O00571 1-662)
Anaphase-promoting complex subunit 1 (from UniProt Q9H1A4 1-1944)
Anaphase-promoting complex subunit 4 (from UniProt Q9UJX5 1-808)
Anaphase-promoting complex subunit 5 (from UniProt Q9UJX4 1-755)
Coatomer subunit alpha (from UniProt P53621 1-1224)
Cullin-7 (from UniProt Q14999 1-1698)
Cytoplasmic dynein 1 heavy chain 1 (from UniProt Q14204 1-4646)
Eukaryotic initiation factor 4A-III (from UniProt P38919 1-411)
Nuclear pore complex protein Nup153 (from UniProt P49790 1-1475)
U5 small nuclear ribonucleoprotein 200 kDa helicase (from UniProt O75643 1-2136)
B1
B2
